Measured values from patent US12252511 (dated 2025).

Test: general procedure: solution-phase peptide synthesis; HATU, diisopropylethyl amine

Work on “S-((E)-4-((7S,10S)-7-isopropyl-4,4-dimethyl-2,5,8,12-tetraoxo-9-oxa-16-thia-3,6,13,18-tetraazabicyclo[13.2.1]octadeca-1(17),15(18)-dien-10-yl)but-3-en-1-yl) octanethioate” yielded a step yield (lipidation step) of 90%.

With “(S)-S-((E)-4-((7S,10S)-7-isopropyl-4,4-dimethyl-2,5,8,12-tetraoxo-9-oxa-16-thia-3,6,13,18-tetraazabicyclo[13.2.1]octadeca-1(17),15(18)-dien-10-yl)but-3-en-1-yl) 2-amino-3-methylbutanethioate hydrochloride” the step yield (late stage modification step, hydrochloride) was 95%.

With “(R)-2′-((5S,8S)-5-((E)-4-chlorobut-1-en-1-yl)-8-isopropyl-12,12-dimethyl-3,7,10-trioxo-6,11-dioxa-2,9-diazatridecyl)-4-methyl-4,5-dihydro-[2,4′-bithiazole]-4-carboxylic acid” the step yield (coupling step) was 88%.

For “(S)-S-((E)-4-((7S, 10S)-7-isopropyl-4,4-dimethyl-2,5,8,12-tetraoxo-9-oxa-16-thia-3,6,13,18-tetraazabicyclo[13.2.1 ]octadeca-1(17),15(18)-dien-10-yl)but-3-en-1-yl) 2-amino-3-methylbutanethioate benzenesulfonate”, the step yield (late stage modification step, benzenesulfonate) was 50%.

In the case of “tert-butyl 2-((5S,8S)-5-((E)-4-chlorobut-1-en-1-yl)-8-isopropyl-11,11,15,15-tetramethyl-3,7,10,13-tetraoxo-6,14-dioxa-2,9,12-triazahexadecyl)thiazole-4-carboxylate acid trifluoroacetate”, the step yield (coupling step, trifluoroacetate) was 90%.

In the case of “(S)-S-((E)-4-((7S,10S)-7-isopropyl-4,4-dimethyl-2,5,8,12-tetraoxo-9-oxa-16-thia-3,6,13,18-tetraazabicyclo[13.2.1]octadeca-1(17),15(18)-dien-10-yl)but-3-en-1-yl) 2-((tert-butoxycarbonyl)amino)-3-methylbutanethioate”, the step yield (late stage modification step) was 80%.

For “(7S, 10S)-10-((E)-4-chlorobut-1-en-1-yl)-7-isopropyl-4,4-dimethyl-9-oxa-16-thia-3,6,13,18-tetraazabicyclo[13.2.1]octadeca-1(17),15(18)-diene-2,5,8,12-tetraone”, the cyclisation yield (cyclisation step, overall from Example 5 Boc/tBu protected precursor) was 75% overall.

In the case of “S-((E)-4-((SR,8S,11S)-8-isopropyl-5-methyl-6,9,13-trioxo-10-oxa-3,17-dithia-7,14,19,20-tetraazatricyclo[14,2,1,12,5]icosa-1(18),2(20),16(19)-trien-11-yl)but-3-en-1-yl) octanethioate”, the step yield (lipidation step) was 42%.
